Sequences and labels used below:
B1: il2ra_site1_3nfp_sap_22_mot_0eddeacbb14b769e73e254714f31e2f9_0001_af2_000000052_0001_37_51_H_._d4a0d7e14d3257bbacf2cba0c18c7893_0001_1_af2_0001_0000600027_00000 … (protein)
chain: SSSSDAREEAKELLERALRLALEGDKEEVEKLLERIEELAEESNDPKIEKLLRLLERSLRGSSSS
B2: il2ra_site2_2erj_sap_15_mot_HHH_b1_01129_af2_000000281_0001_18_33_H_._36aedc3324f391c701bbcbfdbcae1c8e_0001_0001_0000300008_0000001_0_0001 (protein)
chain: SSSSSLRELYELANRALHALSKGDEELVEELLEEAKKLAEELNSESVKEHLEALERLLRQLSSSS
B3: il2ra_site1_3nfp_normal_mot_9410bc1eedee1757c7b766bec531e3ee_0001_1_000000027_0001_33_48_H_._HHH_b1_05651_af2_0001_0000500031_0000001_1 (protein)
chain: SSSSSDEEEIRRRIEELLRLVAKIPDPEEAREALEEAIELAKEINNEKLLEKLERAAERLSSSSS
B4: il2ra_site1_2b5i_normal_mot_HHH_b2_00318_000000002_0001_42_56_H_._HHH_b2_06122_af2_0001_0000300015_0000001_0 (protein)
chain: SSSSDLAEEVQKAFLEASRLFLKGDQEEARKLLEELLKELEERNDERNFEDVHRFLEWIHRSSSS
B5: il2ra_site1_1z92_sap_7_mot_74bb627b62bb877a56547cee6c7a6e54_0001_000000029_0001_1_13_H_._HHH_b2_07848_0001_0000200030_0000001_1_0001_af2pred_0001_af2pred_swappe … (protein)
chain: SSSSSSEELAKKIVRILVEAARLSEEQQEELEELARELVKRGYSFEEISKILDKLAAELSSSSSS
B6: il2ra_site1_3nfp_sap_13_mot_2bd1b0f3045d084678c76d87b19d0498_0001_af2_000000155_0001_34_49_H_._HHH_b2_06826_af2_0001_0000200007_0000001_0_0001 (protein)
chain: SSSSDEMERLFRLAHEATRLLRNGDPEEAARVLEEALEIAKEVDPMAERLIEWLLRDLERSSSSS
B7: il2ra_site1_3nfp_sap_8_mot_119b7766384adbe86006a62bce89dba1_0001_af2_000000092_0001_18_32_H_._71ef7cdb5dcc7a70b233eb8b1f999326_0001_0001_0000300009_0000001_0_00 … (protein)
chain: SSSSSSEEEVEELLRQAKEAFEKGDLKLAFELIEEALRIAKEAGDEELLRAIERVMRELASSSSS
B8: il2ra_site2_2erj_sap_20_mot_HHH_b1_04360_af2_000000220_0001_40_57_H_._HHH_b1_02776_0001_0000200003_0000001_0_0001 (protein)
chain: SSSSSSSLLEEAQEEIERLLKEGNSEEALRFAYEVAVELLRKDLREAHEFLEEAQKLFSSSSSSS
B9: il2ra_site1_2b5i_sap_8_mot_HHH_b1_08243_000000135_0001_1_19_H_._HHH_b1_06407_0001_0000700034_0000001_0_0001_af2pred_dldesign_0_af2pred (protein)
chain: SSSSDPKAEVERLLEEARRLYEAGRRREAFELLEEAYKLASEANDDELEDKVYAFARELASSSSS
B10: il2ra_site2_3nfp_sap_14_mot_HHH_b2_05823_000000037_0001_43_56_H_._HHH_b2_05358_0001_0000200012_0000001_0_0001 (protein)
chain: SSSSDDRLELTIESAKLLAEELNDDEALERIEQLEEEIEREGDPRLRLELYELALELYERGSSSS
B11: il2ra_site1_2b5i_normal_mot_HHH_b2_04910_000000118_0001_1_19_H_._HHH_b1_05441_0001_0000100005_0000001_0_af2pred_dldesign_0_af2pred (protein)
chain: SSSSDVKKARELFLEANRLRQAGDYAGAEALLEKAKELAEAAKANLLVKIIENALADLRALSSSS
B12: il2ra_site1_1z92_normal_mot_b1fbee8209167eaadba3689d49187f1a_0001_1_af2_000000019_0001_16_31_H_._2432f4ad5732428c6a29b72b57de0898_0001_1_0001_0000100003_0000001 … (protein)
chain: TEMAELLAKILLDPRRREELLEELLEEAKKEGDLEAIRRDLEFAARFFGDPEIEEVVRELYEELK
B13: il2ra_site2_2erj_normal_mot_HHH_b2_05264_af2_000000057_0001_44_57_H_._HHH_b2_07172_0001_0000200008_0000001_0 (protein)
chain: SSSSSDEREVWERVAELLSRAAHVEDEEEAERLLREARELAEELGSPFLERYVEYARRAHSSSSS
B14: il2ra_site1_3nfp_sap_12_mot_HHH_b1_07770_af2_000000151_0001_1_16_H_._HHH_b1_05931_0001_0000200005_0000001_0_0001_af2pred_0001_af2pred_1_swapped (protein)
chain: SSSSSELEEIIREAEELAKEAGSKVAERLIRLLAERFEKTGDPRAVELIEEAAEALKRFLKSSSS
B15: il2ra_site2_2erj_sap_19_mot_HHH_b1_00821_000000158_0001_1_20_H_._HHH_b1_01338_0001_0000700017_0000001_0_0001 (protein)
chain: SSSSSELEERIRELLEELEEVVKEGDFARAYELALEIYHLIAKLGDEELARELSELIKRMQSSSS
B16: il2ra_site2_2erj_normal_mot_HHH_b1_04373_af2_000000118_0001_18_33_H_._HHH_b2_05199_0001_0000200024_0000001_0 (protein)
chain: SSSSSEELRRLYELAVILLRLVEEGDEEEFERVLEEAQKIAEERQSDSAEEFLEILEKLLSSSSS
B17: il2ra_site1_3nfp_sap_18_mot_HHH_b1_01335_af2_000000105_0001_39_53_H_._966a9f62293634969225d85b517b1661_0001_1_0001_0001000027_0000001_0_0001 (protein)
chain: SSSSDVFKRAQRLSREILRLHHEGDREEARRLLEELQEYAEEEGDPVLEYFVEKLEEHIDSSSSS
B18: il2ra_site2_3nfp_sap_22_mot_HHH_b1_01480_000000265_0001_40_57_H_._HHH_b1_04954_0001_0000100002_0000001_0_0001 (protein)
chain: SSSSDVEEQVEELLEEFRKALEEGDEDLLRVLFVRIMRLAMRTNDPKISEISHEVFQLLESSSSS
B19: il2ra_site1_2b5i_sap_16_mot_HHH_b1_01419_af2_000000080_0001_42_53_H_._HHH_b1_05266_af2_0001_0000100001_0000001_1_0001_af2pred_dldesign_0_af2pred (protein)
chain: SSSSSNQDEVYRLYKEALRLYKEGKREEAKKVLEEALKLAEKNKDEVAVKELKELLKRLESSSSS

The list shows a part of the results.

The target in this assay is il2ra, P01589. In words: yeast display titration.
In the case of B1, the “apparent Kd” value is “inactive: no binding seen”.
As to B2, the “apparent Kd” value is “inactive: no binding seen”.
Under B3 stands “inactive: no binding seen”; under B4, “inactive: no binding seen”.
Regarding B5, the “apparent Kd” value is “inactive: no binding seen”.
Regarding B6, the “apparent Kd” value is “inactive: no binding seen”.
The entry for B7 is “inactive: no binding seen”.
Turning to B8, the “apparent Kd” value was “inactive: no binding seen”.
As to B9, the “apparent Kd” value is “inactive: no binding seen”.
Under B10 stands “inactive: no binding seen”.
The entry for B11 is “inactive: no binding seen”; for B12 it is “inactive: no binding seen”.
Under B13 stands “inactive: no binding seen”; under B14, “inactive: no binding seen”.
For the molecule B15, the “apparent Kd” value was “inactive: no binding seen”.
As to B16, the “apparent Kd” value is “inactive: no binding seen”.
With B17, the “apparent Kd” value was “inactive: no binding seen”.
Under B18 stands “inactive: no binding seen”; under B19, “inactive: no binding seen”.

The record behind these values is paper PMC10163288.
